Measurements taken from article PMC12664722.
No constants are given. Whether binding was seen depends on the method and setting. In cells and extracts the contact can be indirect. Some binding calls cover weakened binding; strength is not graded here.

Sequences of proteins named here, by UniProt entry; tags and fusion partners are left off. A change or cut given only in a name is not applied to a line headed by its entry.
UniProt P05556: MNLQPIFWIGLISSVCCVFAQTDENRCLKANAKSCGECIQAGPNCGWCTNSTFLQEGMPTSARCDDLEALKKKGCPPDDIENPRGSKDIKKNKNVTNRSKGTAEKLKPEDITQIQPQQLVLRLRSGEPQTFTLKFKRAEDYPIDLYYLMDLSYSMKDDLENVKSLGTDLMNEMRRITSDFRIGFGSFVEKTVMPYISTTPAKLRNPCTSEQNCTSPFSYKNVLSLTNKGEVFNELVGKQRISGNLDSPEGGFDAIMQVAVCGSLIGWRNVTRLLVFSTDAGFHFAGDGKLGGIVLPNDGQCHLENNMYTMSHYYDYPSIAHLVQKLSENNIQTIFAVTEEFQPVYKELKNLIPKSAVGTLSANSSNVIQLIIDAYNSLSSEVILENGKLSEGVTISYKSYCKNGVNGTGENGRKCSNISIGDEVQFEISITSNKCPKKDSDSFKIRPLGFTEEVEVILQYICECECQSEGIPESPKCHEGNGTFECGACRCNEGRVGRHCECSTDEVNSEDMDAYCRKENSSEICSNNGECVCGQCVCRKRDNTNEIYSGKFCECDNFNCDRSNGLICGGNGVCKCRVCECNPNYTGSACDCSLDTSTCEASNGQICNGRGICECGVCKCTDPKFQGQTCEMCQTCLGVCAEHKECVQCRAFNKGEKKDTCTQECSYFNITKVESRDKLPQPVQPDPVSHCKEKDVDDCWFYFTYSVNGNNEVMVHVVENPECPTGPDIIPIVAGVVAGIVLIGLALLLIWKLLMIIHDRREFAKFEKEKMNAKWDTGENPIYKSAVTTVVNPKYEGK

T1: COL6A2 (α2 chain of collagen VI) (human (endogenous in OSRC-2)) (UniProt P12110)
T1 sequence: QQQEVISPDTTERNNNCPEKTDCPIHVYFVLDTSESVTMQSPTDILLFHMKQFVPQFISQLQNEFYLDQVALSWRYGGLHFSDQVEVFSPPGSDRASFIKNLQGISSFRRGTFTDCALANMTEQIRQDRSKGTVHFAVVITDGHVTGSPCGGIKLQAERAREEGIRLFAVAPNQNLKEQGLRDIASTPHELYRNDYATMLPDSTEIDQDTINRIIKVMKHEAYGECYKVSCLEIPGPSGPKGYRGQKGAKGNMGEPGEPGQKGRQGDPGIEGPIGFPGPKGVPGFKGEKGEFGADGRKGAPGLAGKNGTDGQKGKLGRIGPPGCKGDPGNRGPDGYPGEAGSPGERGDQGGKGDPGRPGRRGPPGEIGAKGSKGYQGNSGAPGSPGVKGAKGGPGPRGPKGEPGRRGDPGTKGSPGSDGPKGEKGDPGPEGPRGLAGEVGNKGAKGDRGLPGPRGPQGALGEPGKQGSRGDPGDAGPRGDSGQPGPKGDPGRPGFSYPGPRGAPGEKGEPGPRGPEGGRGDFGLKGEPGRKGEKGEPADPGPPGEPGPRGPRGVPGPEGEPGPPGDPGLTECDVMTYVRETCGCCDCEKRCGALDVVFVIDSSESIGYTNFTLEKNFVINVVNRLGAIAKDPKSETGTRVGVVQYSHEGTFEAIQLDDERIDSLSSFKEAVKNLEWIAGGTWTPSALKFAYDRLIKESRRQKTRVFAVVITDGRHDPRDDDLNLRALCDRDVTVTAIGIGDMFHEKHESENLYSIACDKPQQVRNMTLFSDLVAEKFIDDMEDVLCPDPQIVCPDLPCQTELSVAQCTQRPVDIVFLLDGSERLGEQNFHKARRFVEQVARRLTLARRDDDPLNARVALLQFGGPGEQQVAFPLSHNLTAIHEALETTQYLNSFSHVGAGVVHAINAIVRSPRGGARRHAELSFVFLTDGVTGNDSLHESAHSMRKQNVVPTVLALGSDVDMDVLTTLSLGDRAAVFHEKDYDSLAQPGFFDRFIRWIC


What was measured:
[1] = target: T1, COL6A2 (α2 chain of collagen VI) (human (endogenous in OSRC-2)); assay: co-IP; reciprocal co-IP of endogenous proteins from OSRC-2 lysate (IP lysis buffer, pre-cleared with Protein A/G magnetic beads); anti-COL6A2 or anti-integrin β1 antibody or normal rabbit IgG overnight at 4 °C, beads 4 h, three washes, Western blot
[2] = target: integrin β1 (human (endogenous in OSRC-2)) (UniProt P05556); assay: as above

Row | binding [1] | binding [2] | Molecule
1 | binds | – | integrin β1 (from UniProt P05556 21-798) (receptor)
2 | – | binds | COL6A2 (α2 chain of collagen VI) (protein, UniProt P12110 21-1019) QQQEVISPDTTERNNNCPEKTDCPIHVYFVLDTSESVTMQSPTDILLFHMKQFVPQFISQLQNEFYLDQVALSWRYGGLHFSDQVEVFSPPGSDRASFIKNLQGISSFRRGTFTDCALANMTEQIRQDRSKGTVHFAVVITDGHVTGSPCGGIKLQAERAREEGIRLFAVAPNQNLKEQGLRDIASTPHELYRNDYATMLPDSTEIDQDTINRIIKVMKHEAYGECYKVSCLEIPGPSGPKGYRGQKGAKGNMGEPGEPGQKGRQGDPGIEGPIGFPGPKGVPGFKGEKGEFGADGRKGAPGLAGKNGTDGQKGKLGRIGPPGCKGDPGNRGPDGYPGEAGSPGERGDQGGKGDPGRPGRRGPPGEIGAKGSKGYQGNSGAPGSPGVKGAKGGPGPRGPKGEPGRRGDPGTKGSPGSDGPKGEKGDPGPEGPRGLAGEVGNKGAKGDRGLPGPRGPQGALGEPGKQGSRGDPGDAGPRGDSGQPGPKGDPGRPGFSYPGPRGAPGEKGEPGPRGPEGGRGDFGLKGEPGRKGEKGEPADPGPPGEPGPRGPRGVPGPEGEPGPPGDPGLTECDVMTYVRETCGCCDCEKRCGALDVVFVIDSSESIGYTNFTLEKNFVINVVNRLGAIAKDPKSETGTRVGVVQYSHEGTFEAIQLDDERIDSLSSFKEAVKNLEWIAGGTWTPSALKFAYDRLIKESRRQKTRVFAVVITDGRHDPRDDDLNLRALCDRDVTVTAIGIGDMFHEKHESENLYSIACDKPQQVRNMTLFSDLVAEKFIDDMEDVLCPDPQIVCPDLPCQTELSVAQCTQRPVDIVFLLDGSERLGEQNFHKARRFVEQVARRLTLARRDDDPLNARVALLQFGGPGEQQVAFPLSHNLTAIHEALETTQYLNSFSHVGAGVVHAINAIVRSPRGGARRHAELSFVFLTDGVTGNDSLHESAHSMRKQNVVPTVLALGSDVDMDVLTTLSLGDRAAVFHEKDYDSLAQPGFFDRFIRWIC
